The source of these data is patent US20200040401A1 (KAOHSIUNG MEDICAL UNIVERSITY, published 2020).

The chains behind the UniProt entries cited, without tags or fusion partners. Where a name states a change or a piece, a line headed by the entry shows the natural chain unless it says otherwise.
UniProt Q7TMY8: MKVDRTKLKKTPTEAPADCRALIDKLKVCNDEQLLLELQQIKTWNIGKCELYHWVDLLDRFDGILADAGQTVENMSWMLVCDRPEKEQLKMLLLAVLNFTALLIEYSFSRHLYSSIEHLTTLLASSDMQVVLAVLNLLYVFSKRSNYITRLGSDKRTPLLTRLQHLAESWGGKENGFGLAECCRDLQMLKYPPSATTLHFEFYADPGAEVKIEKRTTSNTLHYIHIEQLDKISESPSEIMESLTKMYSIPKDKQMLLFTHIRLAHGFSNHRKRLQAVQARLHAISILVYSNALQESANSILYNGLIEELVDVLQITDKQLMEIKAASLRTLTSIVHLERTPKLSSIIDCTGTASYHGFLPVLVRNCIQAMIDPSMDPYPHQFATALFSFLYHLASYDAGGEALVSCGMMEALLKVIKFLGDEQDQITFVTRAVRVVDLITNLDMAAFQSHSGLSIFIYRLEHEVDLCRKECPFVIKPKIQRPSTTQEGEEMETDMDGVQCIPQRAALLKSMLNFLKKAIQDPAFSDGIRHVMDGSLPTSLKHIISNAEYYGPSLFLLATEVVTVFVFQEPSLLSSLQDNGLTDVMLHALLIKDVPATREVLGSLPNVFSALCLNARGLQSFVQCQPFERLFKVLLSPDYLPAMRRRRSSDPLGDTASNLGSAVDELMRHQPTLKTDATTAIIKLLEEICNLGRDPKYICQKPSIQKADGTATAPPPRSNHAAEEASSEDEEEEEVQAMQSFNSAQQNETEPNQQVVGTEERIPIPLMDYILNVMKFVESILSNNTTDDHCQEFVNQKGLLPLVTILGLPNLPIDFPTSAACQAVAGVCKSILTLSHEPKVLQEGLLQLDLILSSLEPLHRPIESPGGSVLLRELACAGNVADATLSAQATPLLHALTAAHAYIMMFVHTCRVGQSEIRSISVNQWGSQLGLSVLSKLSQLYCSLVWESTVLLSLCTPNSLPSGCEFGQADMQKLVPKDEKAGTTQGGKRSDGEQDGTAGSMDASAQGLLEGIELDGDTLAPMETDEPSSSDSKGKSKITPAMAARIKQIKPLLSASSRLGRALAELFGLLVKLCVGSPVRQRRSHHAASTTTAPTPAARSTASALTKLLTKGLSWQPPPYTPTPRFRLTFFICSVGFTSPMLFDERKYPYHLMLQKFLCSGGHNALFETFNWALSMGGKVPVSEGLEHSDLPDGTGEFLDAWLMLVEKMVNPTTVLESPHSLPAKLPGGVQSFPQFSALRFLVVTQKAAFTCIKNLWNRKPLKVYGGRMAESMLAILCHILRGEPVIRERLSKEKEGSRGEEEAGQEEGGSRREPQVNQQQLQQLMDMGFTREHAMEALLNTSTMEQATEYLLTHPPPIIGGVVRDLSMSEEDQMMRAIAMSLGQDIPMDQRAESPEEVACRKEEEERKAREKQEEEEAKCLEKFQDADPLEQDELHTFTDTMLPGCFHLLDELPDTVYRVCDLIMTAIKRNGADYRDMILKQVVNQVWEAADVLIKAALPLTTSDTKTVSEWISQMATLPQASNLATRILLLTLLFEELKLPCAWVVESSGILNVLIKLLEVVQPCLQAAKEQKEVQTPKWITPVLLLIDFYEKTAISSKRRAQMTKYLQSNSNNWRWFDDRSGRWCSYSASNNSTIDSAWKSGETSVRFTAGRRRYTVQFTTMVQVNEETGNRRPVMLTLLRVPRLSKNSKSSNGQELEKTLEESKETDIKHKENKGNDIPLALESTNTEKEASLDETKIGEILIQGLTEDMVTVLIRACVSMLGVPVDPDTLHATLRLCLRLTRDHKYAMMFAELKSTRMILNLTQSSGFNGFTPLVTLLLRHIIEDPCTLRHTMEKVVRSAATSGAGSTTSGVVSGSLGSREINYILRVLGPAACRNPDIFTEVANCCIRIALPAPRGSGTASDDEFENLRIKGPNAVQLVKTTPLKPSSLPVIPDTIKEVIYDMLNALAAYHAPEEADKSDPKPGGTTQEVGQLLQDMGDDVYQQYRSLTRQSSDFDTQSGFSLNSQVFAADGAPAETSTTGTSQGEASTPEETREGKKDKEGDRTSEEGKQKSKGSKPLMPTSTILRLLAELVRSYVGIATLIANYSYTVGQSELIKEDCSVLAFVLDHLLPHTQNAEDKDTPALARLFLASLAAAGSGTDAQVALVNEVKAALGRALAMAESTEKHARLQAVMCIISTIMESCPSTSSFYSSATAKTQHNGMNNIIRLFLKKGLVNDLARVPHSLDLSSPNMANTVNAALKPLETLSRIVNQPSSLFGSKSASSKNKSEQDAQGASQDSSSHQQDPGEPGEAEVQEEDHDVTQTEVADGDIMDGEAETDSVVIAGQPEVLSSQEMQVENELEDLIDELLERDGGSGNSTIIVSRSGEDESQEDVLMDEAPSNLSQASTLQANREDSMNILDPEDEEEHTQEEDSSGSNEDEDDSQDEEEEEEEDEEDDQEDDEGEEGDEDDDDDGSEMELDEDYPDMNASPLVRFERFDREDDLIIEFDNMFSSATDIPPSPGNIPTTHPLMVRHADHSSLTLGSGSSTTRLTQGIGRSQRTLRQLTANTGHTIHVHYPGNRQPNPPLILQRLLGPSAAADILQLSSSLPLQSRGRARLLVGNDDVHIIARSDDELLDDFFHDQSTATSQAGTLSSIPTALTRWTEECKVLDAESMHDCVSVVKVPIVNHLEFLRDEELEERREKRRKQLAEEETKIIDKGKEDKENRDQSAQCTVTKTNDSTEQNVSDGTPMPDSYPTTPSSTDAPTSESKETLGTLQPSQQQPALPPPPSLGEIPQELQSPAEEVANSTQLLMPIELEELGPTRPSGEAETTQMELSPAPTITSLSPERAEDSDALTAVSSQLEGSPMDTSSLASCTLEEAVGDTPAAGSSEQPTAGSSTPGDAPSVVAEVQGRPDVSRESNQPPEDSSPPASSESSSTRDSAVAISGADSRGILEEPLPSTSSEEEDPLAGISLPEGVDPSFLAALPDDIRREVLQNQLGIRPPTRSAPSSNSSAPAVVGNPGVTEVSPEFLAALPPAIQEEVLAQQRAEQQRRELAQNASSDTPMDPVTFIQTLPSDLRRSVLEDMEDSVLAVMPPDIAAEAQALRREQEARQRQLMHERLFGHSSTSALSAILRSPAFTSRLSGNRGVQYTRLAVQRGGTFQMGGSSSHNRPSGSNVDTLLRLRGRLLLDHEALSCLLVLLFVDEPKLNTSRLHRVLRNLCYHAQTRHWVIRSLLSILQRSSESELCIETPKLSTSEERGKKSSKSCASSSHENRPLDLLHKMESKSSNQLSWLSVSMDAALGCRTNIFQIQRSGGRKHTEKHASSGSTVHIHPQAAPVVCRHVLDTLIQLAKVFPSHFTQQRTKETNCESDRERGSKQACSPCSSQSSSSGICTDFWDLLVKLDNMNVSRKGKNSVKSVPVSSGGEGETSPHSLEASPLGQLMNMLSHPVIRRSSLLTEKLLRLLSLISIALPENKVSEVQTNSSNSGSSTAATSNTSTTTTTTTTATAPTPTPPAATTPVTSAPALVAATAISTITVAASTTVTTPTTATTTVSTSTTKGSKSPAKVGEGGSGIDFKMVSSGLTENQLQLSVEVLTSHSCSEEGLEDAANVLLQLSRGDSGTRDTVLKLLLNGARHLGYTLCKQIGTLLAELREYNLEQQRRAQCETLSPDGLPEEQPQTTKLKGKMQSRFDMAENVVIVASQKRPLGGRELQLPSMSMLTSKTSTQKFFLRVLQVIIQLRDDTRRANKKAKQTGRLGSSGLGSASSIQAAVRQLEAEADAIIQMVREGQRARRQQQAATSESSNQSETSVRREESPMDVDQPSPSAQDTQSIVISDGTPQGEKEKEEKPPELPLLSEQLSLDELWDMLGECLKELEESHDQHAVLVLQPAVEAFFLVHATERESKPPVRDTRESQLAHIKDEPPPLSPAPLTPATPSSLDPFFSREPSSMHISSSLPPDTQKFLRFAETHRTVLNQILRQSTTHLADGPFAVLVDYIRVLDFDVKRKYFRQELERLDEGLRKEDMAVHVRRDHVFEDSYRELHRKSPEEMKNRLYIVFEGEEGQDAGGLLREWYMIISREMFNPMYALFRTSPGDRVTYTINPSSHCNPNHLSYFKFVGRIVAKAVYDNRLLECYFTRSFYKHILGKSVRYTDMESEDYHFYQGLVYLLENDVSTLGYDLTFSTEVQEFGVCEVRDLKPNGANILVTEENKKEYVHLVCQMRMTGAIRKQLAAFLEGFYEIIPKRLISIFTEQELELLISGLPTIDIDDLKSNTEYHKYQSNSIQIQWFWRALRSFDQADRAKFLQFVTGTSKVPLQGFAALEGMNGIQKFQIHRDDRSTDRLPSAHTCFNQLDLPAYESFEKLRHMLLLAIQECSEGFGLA

Results are given in words; binding and its absence hold for the method and conditions named. Binding seen in cells or lysates may run through a third protein. Some entries that bind do so weakly or less than the wild type. For some assays here: Sequences can lack the tags named with a protein.

Assay [1] has as its target phosphatidylinositol 3,4,5-trisphosphate Rac exchange factor 2 (PREX2) (UniProt Q70Z35). Put plainly: co-IP.
Assay [2] shares this target. Put plainly: co-IP with and without co-expressed GNMT.
Assay [3] concerns the target T1, His-Myc-tagged PDZ domains of PREX2 (UniProt Q70Z35).
T1 sequence (looked up): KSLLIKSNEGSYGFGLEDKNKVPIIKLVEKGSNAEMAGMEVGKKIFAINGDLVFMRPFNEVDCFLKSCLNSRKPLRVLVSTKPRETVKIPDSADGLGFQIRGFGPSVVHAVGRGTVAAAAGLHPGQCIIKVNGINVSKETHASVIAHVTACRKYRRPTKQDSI
Put plainly: in vitro pull-down with purified proteins.

Assay [4] addresses phosphatidylinositol 3,4,5-trisphosphate Rac exchange factor 2 (PREX2) (UniProt Q70Z35). Nature of the assay: co-IP and immunoblot, Huh7-GNMT stable cells (FIG. 1A). For orientation: In western blotting, separated proteins are transferred to a membrane and probed.
For assay [5] the target is unchanged. Put plainly: reciprocal co-IP, lysates of HEK293T cells co-transfected with PREX2 and GNMT plasmids.

On to “homologous to E6AP carboxyl terminus homologous protein 9 (HectH9) (from UniProt Q7TMY8 1-4377 at identity 1.00)) (enzyme)”, for which the binding entry in assay [1] and in assay [2] was “binds” throughout.

B1: purified GST-GNMT (enzyme, not shown: a dimerising Fc or GST)
chain: MVDSVYRTRSLGVAAEGLPDQYADGEAARVWQLYIGDTRSRTAEYKAWLLGLLRQHGCQRVLDVACGTGVDSIMLVEEGFSVTSVDASDKMLKYALKERWNRRHEPAFDKWVIEEANWMTLDKDVPQSAEGGFDAVICLGNSFAHLPDCKGDQSEHRLALKNIASMVRAGGLLVIDHRNYDHILSTGCAPPGKNIYYKSDLTKDVTTSVLIVNNKAHMVTLDYTVQVPGAGQDGSPGLSKFRLSYYPHCLASFTELLQAAFGGKCQHSVLGDFKPYKPGQTYIPCYFIHVLKRTD
For B1, in assay [3], the binding result is “binds”.

B2: glycine-N-methyltransferase (GNMT) (enzyme)
chain: VDSVYRTRSLGVAAEGLPDQYADGEAARVWQLYIGDTRSRTAEYKAWLLGLLRQHGCQRVLDVACGTGVDSIMLVEEGFSVTSVDASDKMLKYALKERWNRRHEPAFDKWVIEEANWMTLDKDVPQSAEGGFDAVICLGNSFAHLPDCKGDQSEHRLALKNIASMVRAGGLLVIDHRNYDHILSTGCAPPGKNIYYKSDLTKDVTTSVLIVNNKAHMVTLDYTVQVPGAGQDGSPGLSKFRLSYYPHCLASFTELLQAAFGGKCQHSVLGDFKPYKPGQTYIPCYFIHVLKRTD
Regarding B2, the binding result in assay [4] and in assay [5] was “binds” each time.
